In article PMC7561725:
These are yes or no findings as the source states them, for the method shown. In cells and extracts the contact can be indirect. Some entries that bind do so weakly or less than the wild type.

Amino acid sequences for entries named in this document (tags omitted).
UniProt Q9H7D7: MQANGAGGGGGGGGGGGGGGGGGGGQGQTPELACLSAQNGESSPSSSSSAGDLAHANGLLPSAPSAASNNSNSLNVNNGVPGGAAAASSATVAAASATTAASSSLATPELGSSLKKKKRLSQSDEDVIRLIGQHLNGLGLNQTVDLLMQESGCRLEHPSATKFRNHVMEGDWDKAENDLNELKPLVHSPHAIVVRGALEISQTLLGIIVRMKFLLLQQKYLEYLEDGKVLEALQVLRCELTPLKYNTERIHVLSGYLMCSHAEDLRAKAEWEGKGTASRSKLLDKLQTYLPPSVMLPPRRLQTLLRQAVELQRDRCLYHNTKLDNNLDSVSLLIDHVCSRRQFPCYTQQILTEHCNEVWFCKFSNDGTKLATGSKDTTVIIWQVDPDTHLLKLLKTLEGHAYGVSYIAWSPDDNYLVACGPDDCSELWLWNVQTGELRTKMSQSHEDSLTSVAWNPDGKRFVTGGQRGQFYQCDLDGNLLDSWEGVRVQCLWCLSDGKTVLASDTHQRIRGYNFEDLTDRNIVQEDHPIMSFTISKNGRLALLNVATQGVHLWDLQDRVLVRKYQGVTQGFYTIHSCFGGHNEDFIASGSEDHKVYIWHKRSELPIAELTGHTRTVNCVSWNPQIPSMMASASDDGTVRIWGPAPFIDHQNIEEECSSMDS

Biological target: T1, NOLC1 (human (endogenous in MCF10A and CA1D)) (UniProt Q14978)
T1 sequence: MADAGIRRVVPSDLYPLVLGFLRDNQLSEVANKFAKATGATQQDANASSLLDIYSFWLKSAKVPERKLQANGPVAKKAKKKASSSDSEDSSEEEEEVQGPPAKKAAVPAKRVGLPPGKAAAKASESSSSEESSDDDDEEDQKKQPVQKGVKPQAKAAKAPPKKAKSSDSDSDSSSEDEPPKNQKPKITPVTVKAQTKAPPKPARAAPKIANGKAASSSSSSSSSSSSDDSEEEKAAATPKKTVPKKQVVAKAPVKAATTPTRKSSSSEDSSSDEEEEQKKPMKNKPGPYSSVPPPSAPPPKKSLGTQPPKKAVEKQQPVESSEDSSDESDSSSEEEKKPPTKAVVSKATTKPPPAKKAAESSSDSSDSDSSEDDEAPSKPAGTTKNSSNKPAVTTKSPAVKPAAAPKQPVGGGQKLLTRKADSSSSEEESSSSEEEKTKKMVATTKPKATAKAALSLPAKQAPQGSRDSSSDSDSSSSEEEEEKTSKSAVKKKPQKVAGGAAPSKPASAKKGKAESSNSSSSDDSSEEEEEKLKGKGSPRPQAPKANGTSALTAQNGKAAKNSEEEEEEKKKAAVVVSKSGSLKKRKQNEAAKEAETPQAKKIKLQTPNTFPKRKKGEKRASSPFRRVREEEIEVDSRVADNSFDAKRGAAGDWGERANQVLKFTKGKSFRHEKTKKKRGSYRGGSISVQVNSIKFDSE
Test: co-IP; endogenous NOLC1 and WDR26 in MCF10A and CA1D cells kept in growth media 48 h; cells with lncRNA (TROLL-2, TROLL-3) overexpression or siRNAs; 50 mM Tris-HCl pH 8.0, 150 mM NaCl, 1 mM EDTA, 1% NP-40; western blot

binding: binds
Substance: WDR26 (endogenous) (from UniProt Q9H7D7 1-661)
